The values below come from article PMC7819943, “Rice protein-binding microarrays: a tool to detect cis-acting elements near promoter regions in rice”.

Some of the results follow.

In this assay the target is T1, OsSMF1 (Oryza sativa, UniProt Q6ZLB0 1-436).
T1 sequence: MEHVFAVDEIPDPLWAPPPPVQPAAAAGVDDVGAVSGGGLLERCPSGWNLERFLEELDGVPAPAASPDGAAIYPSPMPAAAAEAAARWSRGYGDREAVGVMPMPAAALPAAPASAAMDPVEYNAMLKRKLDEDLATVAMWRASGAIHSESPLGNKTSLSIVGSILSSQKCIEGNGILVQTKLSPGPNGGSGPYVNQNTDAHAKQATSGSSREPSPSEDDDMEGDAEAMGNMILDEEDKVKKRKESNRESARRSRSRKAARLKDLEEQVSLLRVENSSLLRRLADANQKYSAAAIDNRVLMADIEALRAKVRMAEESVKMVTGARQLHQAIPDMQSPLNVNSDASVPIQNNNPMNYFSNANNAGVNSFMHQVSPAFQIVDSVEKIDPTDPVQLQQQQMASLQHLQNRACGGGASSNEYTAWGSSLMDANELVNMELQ
The experiment in a line: protein-binding microarray (RPBM); PBS, 2% BSA, 51.3 ng/ul salmon testes DNA, 50 uM zinc acetate, 200 nM TF, 25 C, 1 h; high values mean tight binding. The conditions noted are these: protein: recombinant; tags: N-terminal polyhistidine and DsRed monomer fusion (pET32a); chain copies: 2; label: CyDye5-dUTP incorporated in the synthesized complementary strand; 3' TTTTT single-stranded linker to array surface; dsDNA, one strand shown. In short, it runs like this: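 Polyhistidine-tagged DsRed fusions of transcription factors, joined at the N-terminus, were expressed in E. coli BL21-CodonPlus and isolated on Ni–NTA. They were incubated at 200 nM for 1 h at 25 °C on a custom Agilent array, double-stranded and BSA-blocked, in PBS with 2% BSA, salmon testes DNA and 50 µM zinc acetate. The binding signal is per-feature fluorescence intensity (arbitrary units) read on an Axon 4000B scanner after washing.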
In the case of “ACACTCCTGTGCCGCGTTTTCGCCGAGGCTGACAGGTGGGCGGAGTCACCTAGTGCAG”, the binding signal is 3860 fluorescence intensity (a.u.).

As for “CCGCTTGATCTGCTGCCAACCACGACACGATCACACGATCCGGAGTCACCTAGTGCAG”, the binding signal is 3420 fluorescence intensity (a.u.).

As for “GCGCCCCATGTCTGGATTGCACGTCAGGCGCCTGCTTGACCGGAGTCACCTAGTGCAG”, the binding signal is 5390 fluorescence intensity (a.u.).

Consider “ACAAGTAATCAAAGACGGCATGACACGTAGCTTTCTAGACCGGAGTCACCTAGTGCAG”, for which the binding signal was 8230 fluorescence intensity (a.u.).

Regarding “TGCGGTCTCATCGCCGTCGTCATCGCCGCCGCCGCCGCCCCGGAGTCACCTAGTGCAG”, the binding signal is 5130 fluorescence intensity (a.u.).

With “GGTCCATTTAATTTGGCACAGATATCACAAGTGCTAGCTCCGGAGTCACCTAGTGCAG”, the binding signal was 27100 fluorescence intensity (a.u.).

As for “GGGCCGGTTTACCCGCCCACGTCGCCACGAGCGGCGAACCCGGAGTCACCTAGTGCAG”, the binding signal is 3210 fluorescence intensity (a.u.).

For the sequence “CGTGCAGGCGGGCGGGGCCAGGAGATGGTGGCCAGCGTGCCGGAGTCACCTAGTGCAG”, the binding signal is 28100 fluorescence intensity (a.u.).

In the case of “CCCGTTACTCTGAGCCGAGGGACCCACACGTCGACTCACCCGGAGTCACCTAGTGCAG”, the binding signal was 4840 fluorescence intensity (a.u.).

On to “AGGAAAGGAAGAGGGAGGAGTCACTTAAGTATCCCGTCCTCGGAGTCACCTAGTGCAG”, for which the binding signal was 3540 fluorescence intensity (a.u.).

For “CCATAATTCAATCTTACAATGGCGTCATCTCTTTATTATTCGGAGTCACCTAGTGCAG”, the binding signal is 7580 fluorescence intensity (a.u.).

As to “CCCCGCCGCCGTCATCCCCGGACGAGCTGCTCCCGGACCACGGAGTCACCTAGTGCAG”, the binding signal is 4230 fluorescence intensity (a.u.).

Regarding “CTGCTTCTTCTCCTATAAGTAGGGCGATCTCACTCTCTCGCGGAGTCACCTAGTGCAG”, the binding signal is 23000 fluorescence intensity (a.u.).

Regarding “TCACGCGTGGACGAGGCGGCCGCAGACAGCACCACGGCCACGGAGTCACCTAGTGCAG”, the binding signal was 3370 fluorescence intensity (a.u.).

In the case of “GATTATCCTGCAGTCATGTCATGCTTCTCCCCTCCCTGCACGGAGTCACCTAGTGCAG”, the binding signal was 3760 fluorescence intensity (a.u.).

As to “ATCCATAGCGGTTAGTAGCCCTGACGACGATGGTGTTGTTCGGAGTCACCTAGTGCAG”, the binding signal was 3140 fluorescence intensity (a.u.).

As to “AACTACCCACTCTCAGCGCCACACCTCGATGTCATTGAGGCGGAGTCACCTAGTGCAG”, the binding signal is 4840 fluorescence intensity (a.u.).

For the sequence “TATGATGCATACATCACAAATCCTAGGTGTATAGTGTCTCCGGAGTCACCTAGTGCAG”, the binding signal is 3420 fluorescence intensity (a.u.).

“CGGCTGCAGGCGAGCTCGCGGTGGGACGGCCAGCTCCGAGCGGAGTCACCTAGTGCAG”: the binding signal was 31100 fluorescence intensity (a.u.).

Regarding “CAATCGATGTAAGGTGTCGTTTGTGTTAGATAGAGCAGTGCGGAGTCACCTAGTGCAG”, the binding signal is 33800 fluorescence intensity (a.u.).

Consider “ACTCCTTTATTAGTATTTGTTTCTGTCATCACTGTGCTTCCGGAGTCACCTAGTGCAG”, for which the binding signal was 3590 fluorescence intensity (a.u.).

On to “CATTGGGCTATATAATTAACTTTATGATTCATCCTCATTCCGGAGTCACCTAGTGCAG”, for which the binding signal was 3510 fluorescence intensity (a.u.).

As to “AAATACCGTACACGTAGGTGTAGAAACTGTTGCCGTATTTCGGAGTCACCTAGTGCAG”, the binding signal was 7220 fluorescence intensity (a.u.).

As for “CCCACGGAGCCGCCACATCACGGATCCCCACGCCGGGGCGCGGAGTCACCTAGTGCAG”, the binding signal is 7180 fluorescence intensity (a.u.).

For the sequence “ATGCCATCGTACATAAACGCCTCGTGTTCATGTGTTAGGCCGGAGTCACCTAGTGCAG”, the binding signal was 5260 fluorescence intensity (a.u.).

As for “AGTGTGTGCGTGCGTCAACACACAGCTCAAGCTTACGCGGCGGAGTCACCTAGTGCAG”, the binding signal was 6860 fluorescence intensity (a.u.).

As to “AGCCCTCTTAGCTCTTTTGCAAGCGGCCCTCTAGAGCAAACGGAGTCACCTAGTGCAG”, the binding signal is 26500 fluorescence intensity (a.u.).

“ACGCCACAAGAGGTTGAGGTTGAGGATGGCGGCTACAAGCCGGAGTCACCTAGTGCAG”: the binding signal is 24500 fluorescence intensity (a.u.).

Take “TTATTATTATTATTATGTTTTCCTTGTTACCTTCTGAGCACGGAGTCACCTAGTGCAG”: the binding signal is 3730 fluorescence intensity (a.u.).

On to “CTGCCTTGCGTGCGTATGGTAGGAAAGGGAAAGCGTTTGCCGGAGTCACCTAGTGCAG”, for which the binding signal is 3920 fluorescence intensity (a.u.).

For “AACGAGCATCCTCCTCCGCGTGGGCCACACGCTGCGTTTACGGAGTCACCTAGTGCAG”, the binding signal is 3640 fluorescence intensity (a.u.).

As for “TAATATTCAACATTTGGAATAAGATTCGGTTACTTATAAACGGAGTCACCTAGTGCAG”, the binding signal is 18100 fluorescence intensity (a.u.).

“CAATGATAGGTGGTATGCTTTTGATGTGACAACAAATTGACGGAGTCACCTAGTGCAG”: the binding signal was 3860 fluorescence intensity (a.u.).

As for “TCTTCCACCTCGGCGAGGAGGGTGGCGTCGTCCACTGCCACGGAGTCACCTAGTGCAG”, the binding signal is 3330 fluorescence intensity (a.u.).

For “GTGTTCAAAGACGTGCACTTCTCGTACCCGTCGAGGCCGGCGGAGTCACCTAGTGCAG”, the binding signal is 3560 fluorescence intensity (a.u.).

As to “TCCTGAAGATGACTGGAACATGACTGTGGATCTGCATAAACGGAGTCACCTAGTGCAG”, the binding signal was 3640 fluorescence intensity (a.u.).

On to “GGTCTAGTGGCCGTTATGTGTGCTGTCACGTCAGGCCGGCCGGAGTCACCTAGTGCAG”, for which the binding signal is 4840 fluorescence intensity (a.u.).

Consider “TGTTAGCTCCTCACCGTCACCGGTGTGCCTCGCGTCGTTCCGGAGTCACCTAGTGCAG”, for which the binding signal was 3840 fluorescence intensity (a.u.).

Take “GCTACGACGACTAAACATGGCGTGTCAGCCAGTAAGCACCCGGAGTCACCTAGTGCAG”: the binding signal is 4490 fluorescence intensity (a.u.).

On to “GGGCCTTCCGACGGCATCGTCATGGTTAGACCGGCGGGGACGGAGTCACCTAGTGCAG”, for which the binding signal was 3240 fluorescence intensity (a.u.).

For “TGGAAAGAGGAGGGCGGGGAGAGGACTGGGGAGGGCGGGGCGGAGTCACCTAGTGCAG”, the binding signal was 8260 fluorescence intensity (a.u.).

Regarding “GGAGAGGAGGCGGAGGTGAAGGGGAAGGGGCAGGGGAGGACGGAGTCACCTAGTGCAG”, the binding signal was 3720 fluorescence intensity (a.u.).
